Experimental data taken from PubChem BioAssay AID1259415 (National Center for Advancing Translational Sciences (NCATS), 2018).
Several values for one entry are separate records, joined by “and”; a condition that tells them apart may be missing. Equal entries are not always repeated. Hit rate of the full screen: of about 410,000 compounds, about 18,000 (4.4%) were called active. The inconclusive results got no clear call from the source; some entries with a clear call stand among them for comparison. Cut-off read from the data, not from the text of the source: active = activity change below about -60%; inconclusive = no clear call, values can overlap the other calls; inactive = above about -39%.

Experiment: qHTS Assay for inhibitors of the human cytomegalovirus (HCMV)
Settings: HFF cells, HCMV-luciferase reporter, 72 h; at 57.5 µM; stronger effect = lower value
Method in brief: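 Steps: HFFs plated, 16 h 37C; compounds added; HCMV-luciferase added to MOI 1 PFU/cell; 72 h 37C; OneGlo reagent, 5 min room temperature; luminescence read, normalized to controls.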
% is set by controls: 0 for no effect and ±100 for the full control effect.

SMILES	activity change, negative = inhibition
O=C(/C(=N/N=C/c1ccc(O)c(O)c1O)c1ccccc1)c1ccccc1	inactive: 13.6%
O=C(CNC1CCCCC1)Nc1cc(S(=O)(=O)N2CCOCC2)ccc1Cl	inconclusive: -44.4%
COC(=O)CNC(=O)c1c(-c2ccccc2Cl)noc1C	inconclusive: -52.5%
O=C(CCCN1C(=O)/C(=C/c2cccs2)SC1=S)NNC(=O)c1ccc(F)cc1	inconclusive: -47%
Nc1ncnc2nc[nH]c12	inconclusive: -40.3% and inconclusive: -45.8%
CC(=O)NC(=O)COC(=O)/C=C/c1c(C)nn(Cc2c(Cl)cccc2Cl)c1Cl	inactive: -20.9%
CC(C)C[C@H]1COCCS(=O)(=O)N1Cc1cccc(Cl)c1	inconclusive: -48%
CCCCCCCCn1c(=O)c(C(=O)OC)c(N)c2ccccc21	active: -64.4%
CCC1CCCCN1C(=O)c1sc2nc(C)nc(N(CC)CC)c2c1C (stereo not drawn)	inconclusive: -54.6%
CCOC(=O)c1cc(-c2ccccc2)n(-c2cccc(C(=O)N(C)c3ccc(C)cc3)c2)c1C	inconclusive: 0%
C=CCOC(=O)N1CCC2CC1c1cc(-c3ccc(OC)cc3)ccc12 (stereo not drawn)	inconclusive: -41.3%
CCN1CCN(CCCN(Cc2ccco2)C(=S)Nc2ccc(Cl)cc2)CC1	inconclusive: -53%
CCOC(=O)[C@]12Cc3ccccc3[C@H]1N(CCC(=O)OC)C(=O)c1cc(OC)ccc12	active: -99.4%
Cn1c(=O)c2c(SCC(=O)NCC3CCCO3)nc(CC(C)(C)C)nc2n(C)c1=O (stereo not drawn)	inconclusive: -55%
O=c1[nH]c(CSc2nc3ccccc3[nH]2)nc2c1cnn2-c1ccccc1	active: -85.6%
CCCCNC(=O)CC1S/C(=N/N=C/c2ccc(OC)cc2)NC1=O (stereo not drawn)	inconclusive: -54.8%
Cc1ccccc1C(=O)N1CCC(C(=O)Nc2sccc2C(N)=O)CC1	inactive: -9.47%
COc1cc2[nH]c(=O)n(CCCCCC(=O)N3CCN(c4ccc(Cl)cc4)CC3)c(=O)c2cc1OC	inactive: -12.8%
O=C(CSc1cn(CC(=O)N2CCCC2)c2ccccc12)Nc1ccccc1C(F)(F)F	inconclusive: -47.6%
CCCNC(=O)C1(C)CCCN(CCC(=O)c2ccccc2)C1 (stereo not drawn)	inactive: -7.63%
OCCN1CCN(CC/C=C2/c3ccccc3Sc3ccc(Cl)cc32)CC1	inconclusive: -44.2%
COc1ccc2[nH]c3c(c2c1)CCN1C(=O)C(CC(=O)NCc2cccc(C(F)(F)F)c2)C[C@H](C(=O)N(C(C)C)C(C)C)[C@@]31C (stereo partly drawn)	inconclusive: -59.2%

SMILES	activity change, negative = inhibition
CCc1nnc(NC(=O)C2CC(=O)N(CCc3ccccc3)C2)s1 (stereo not drawn)	inactive: 114%
COC(=O)Cn1c(=O)c2c(nc3n2CCCN3CCc2ccccc2)n(C)c1=O	active: -64%
COc1ccc(-n2c(=O)c3ccccc3n(CC(=O)NCc3ccco3)c2=O)cc1	inconclusive: -43.8%
Cn1cc([N+](=O)[O-])c(C(=O)N/N=C/c2ccncc2)n1	inconclusive: -51.4%
COc1ccc2[nH]c(=O)c(CN(Cc3cccnc3)Cc3nnnn3CC3CCCO3)cc2c1 (stereo not drawn)	inconclusive: -44.4%
O=C(c1[nH]c(C(F)(F)F)nc1-c1ccccc1)N1CCN(c2cccc(C(F)(F)F)n2)CC1	inconclusive: -46.1%
COc1ccc(CNC(=O)CCNS(=O)(=O)c2ccc(Br)s2)cc1	inconclusive: -42.6%
O=C(COc1ccc(S(=O)(=O)N2CCOCC2)cc1)N1CCN(c2ccccc2)CC1	inconclusive: -40%
O=C(NCc1ccco1)C1CCN(S(=O)(=O)c2ccc(-n3cnnn3)cc2)CC1	inconclusive: -48.1%
Cc1ccc2nc(N3CCN(c4ccccc4F)CC3)c3nnnn3c2c1	inactive: -36.9%
CC1(C(=O)Nc2cccnc2)Cc2c(-c3ccccc3)ccnc2O1 (stereo not drawn)	inactive: -18.2%
O=C(c1cccs1)N1C[C@@H](O)[C@H](n2cc(-c3ccc(F)cc3)nn2)C[C@@H]1c1ccccc1	inconclusive: -47.1%
Cc1ccsc1C1Nc2ccc3ncccc3c2C2=C1C(=O)CC(C)(C)C2 (stereo not drawn)	inconclusive: -43.1%
CN(CC(=O)Nc1ccc(F)cc1Cl)Cc1cccs1	inactive: -17.4%
COc1cc(CCC(=O)N2CCN(c3ccc([N+](=O)[O-])cc3)CC2)cc(OC)c1OC	inconclusive: -41.2%
O=C(NCCc1ccc(O)c(O)c1)C1COc2ccccc2O1 (stereo not drawn)	inconclusive: -49.3%
CCOc1cccc(Nc2ccc([N+](=O)[O-])cn2)c1	inactive: -22%
Cc1ccc2c(c1)NC(=O)CC(c1ccccc1)=N2	inconclusive: -46.1%
CSc1ccc(CCNc2ncnc3onc(-c4ccc(Cl)cc4)c23)cc1	inconclusive: -58%
CCc1ccc2oc(C(=O)Nc3ccc(S(N)(=O)=O)cc3)c(C)c2c1	inconclusive: -44.1%
Cc1ccc(OCC(=O)Nc2ccc3c(c2)nc(CCN2CCCC2)n3C)cc1	inconclusive: -41.8%

Ordered by number of heavy atoms (rising): three of the compounds above
SMILES	activity change, negative = inhibition
CCc1nnc(NC(=O)C2CC(=O)N(CCc3ccccc3)C2)s1 (stereo not drawn)	inactive: 114%
COC(=O)Cn1c(=O)c2c(nc3n2CCCN3CCc2ccccc2)n(C)c1=O	active: -64%
O=C(c1[nH]c(C(F)(F)F)nc1-c1ccccc1)N1CCN(c2cccc(C(F)(F)F)n2)CC1	inconclusive: -46.1%
